Measured values published in the supplement of paper PMC6411743.
± gives the standard deviation of the averaged measurements. The list shows a part of the results, in another mix than the full data. Small differences around the control level are noise.

By UniProt entry, the sequences of proteins in these tests, tags left out. Where a name states a change or a piece, a line headed by the entry shows the natural chain unless it says otherwise.
UniProt Q5UIP0: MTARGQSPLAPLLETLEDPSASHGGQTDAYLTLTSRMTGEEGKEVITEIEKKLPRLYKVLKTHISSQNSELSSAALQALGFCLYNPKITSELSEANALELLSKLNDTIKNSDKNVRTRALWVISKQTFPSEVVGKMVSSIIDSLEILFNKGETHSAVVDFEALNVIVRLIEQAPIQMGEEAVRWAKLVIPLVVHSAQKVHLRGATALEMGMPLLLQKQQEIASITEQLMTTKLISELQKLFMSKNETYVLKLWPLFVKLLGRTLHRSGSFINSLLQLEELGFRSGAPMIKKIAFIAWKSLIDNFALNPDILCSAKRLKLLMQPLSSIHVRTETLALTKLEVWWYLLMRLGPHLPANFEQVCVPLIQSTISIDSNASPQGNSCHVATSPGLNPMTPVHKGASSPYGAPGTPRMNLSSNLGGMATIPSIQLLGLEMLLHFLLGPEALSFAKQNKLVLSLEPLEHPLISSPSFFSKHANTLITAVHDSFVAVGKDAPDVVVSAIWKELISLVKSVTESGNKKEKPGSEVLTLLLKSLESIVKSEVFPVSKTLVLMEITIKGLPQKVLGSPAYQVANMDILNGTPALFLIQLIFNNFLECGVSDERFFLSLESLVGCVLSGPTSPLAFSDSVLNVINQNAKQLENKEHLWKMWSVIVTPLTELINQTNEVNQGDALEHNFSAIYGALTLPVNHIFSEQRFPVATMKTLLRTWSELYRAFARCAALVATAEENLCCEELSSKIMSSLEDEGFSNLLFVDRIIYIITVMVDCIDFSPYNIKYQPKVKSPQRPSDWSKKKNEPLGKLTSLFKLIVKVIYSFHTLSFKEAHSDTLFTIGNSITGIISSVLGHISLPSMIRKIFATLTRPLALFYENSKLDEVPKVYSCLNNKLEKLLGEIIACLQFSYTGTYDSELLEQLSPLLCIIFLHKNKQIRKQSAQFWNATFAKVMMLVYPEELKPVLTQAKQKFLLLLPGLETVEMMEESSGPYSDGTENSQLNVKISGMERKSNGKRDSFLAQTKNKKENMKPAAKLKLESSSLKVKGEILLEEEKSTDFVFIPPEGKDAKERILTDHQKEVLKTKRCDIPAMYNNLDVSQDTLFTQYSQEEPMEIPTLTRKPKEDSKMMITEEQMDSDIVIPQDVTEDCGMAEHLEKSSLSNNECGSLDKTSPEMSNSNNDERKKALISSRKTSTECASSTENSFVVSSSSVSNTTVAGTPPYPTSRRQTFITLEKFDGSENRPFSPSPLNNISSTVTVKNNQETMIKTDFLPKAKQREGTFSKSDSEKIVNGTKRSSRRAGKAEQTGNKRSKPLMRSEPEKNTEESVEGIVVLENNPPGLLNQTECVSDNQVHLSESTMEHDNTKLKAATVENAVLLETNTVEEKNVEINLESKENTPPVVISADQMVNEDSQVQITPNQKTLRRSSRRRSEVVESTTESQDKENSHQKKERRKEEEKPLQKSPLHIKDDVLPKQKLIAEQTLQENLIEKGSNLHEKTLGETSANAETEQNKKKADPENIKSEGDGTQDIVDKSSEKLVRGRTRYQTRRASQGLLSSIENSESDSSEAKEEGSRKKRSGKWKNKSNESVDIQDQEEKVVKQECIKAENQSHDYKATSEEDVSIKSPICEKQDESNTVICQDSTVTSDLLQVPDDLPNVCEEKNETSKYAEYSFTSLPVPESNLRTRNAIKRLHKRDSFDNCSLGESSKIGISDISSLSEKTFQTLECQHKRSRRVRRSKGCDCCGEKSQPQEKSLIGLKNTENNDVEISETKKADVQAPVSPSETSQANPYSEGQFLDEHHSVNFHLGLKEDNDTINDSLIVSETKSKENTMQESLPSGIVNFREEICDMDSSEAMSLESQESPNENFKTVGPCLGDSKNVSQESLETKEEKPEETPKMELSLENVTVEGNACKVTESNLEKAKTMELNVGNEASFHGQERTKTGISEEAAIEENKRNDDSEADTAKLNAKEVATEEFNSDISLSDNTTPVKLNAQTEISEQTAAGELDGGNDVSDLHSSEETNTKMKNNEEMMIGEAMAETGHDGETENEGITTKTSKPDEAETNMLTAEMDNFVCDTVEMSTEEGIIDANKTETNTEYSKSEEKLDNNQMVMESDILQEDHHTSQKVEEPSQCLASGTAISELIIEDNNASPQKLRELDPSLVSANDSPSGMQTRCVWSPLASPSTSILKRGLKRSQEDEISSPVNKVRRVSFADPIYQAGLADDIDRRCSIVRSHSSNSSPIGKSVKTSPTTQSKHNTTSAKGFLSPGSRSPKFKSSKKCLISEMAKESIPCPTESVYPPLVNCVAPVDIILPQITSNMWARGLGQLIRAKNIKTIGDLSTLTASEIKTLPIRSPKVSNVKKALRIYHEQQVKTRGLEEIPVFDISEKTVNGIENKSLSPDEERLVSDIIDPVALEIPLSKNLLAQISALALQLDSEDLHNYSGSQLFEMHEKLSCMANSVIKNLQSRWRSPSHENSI
UniProt Q68E01, whole entry: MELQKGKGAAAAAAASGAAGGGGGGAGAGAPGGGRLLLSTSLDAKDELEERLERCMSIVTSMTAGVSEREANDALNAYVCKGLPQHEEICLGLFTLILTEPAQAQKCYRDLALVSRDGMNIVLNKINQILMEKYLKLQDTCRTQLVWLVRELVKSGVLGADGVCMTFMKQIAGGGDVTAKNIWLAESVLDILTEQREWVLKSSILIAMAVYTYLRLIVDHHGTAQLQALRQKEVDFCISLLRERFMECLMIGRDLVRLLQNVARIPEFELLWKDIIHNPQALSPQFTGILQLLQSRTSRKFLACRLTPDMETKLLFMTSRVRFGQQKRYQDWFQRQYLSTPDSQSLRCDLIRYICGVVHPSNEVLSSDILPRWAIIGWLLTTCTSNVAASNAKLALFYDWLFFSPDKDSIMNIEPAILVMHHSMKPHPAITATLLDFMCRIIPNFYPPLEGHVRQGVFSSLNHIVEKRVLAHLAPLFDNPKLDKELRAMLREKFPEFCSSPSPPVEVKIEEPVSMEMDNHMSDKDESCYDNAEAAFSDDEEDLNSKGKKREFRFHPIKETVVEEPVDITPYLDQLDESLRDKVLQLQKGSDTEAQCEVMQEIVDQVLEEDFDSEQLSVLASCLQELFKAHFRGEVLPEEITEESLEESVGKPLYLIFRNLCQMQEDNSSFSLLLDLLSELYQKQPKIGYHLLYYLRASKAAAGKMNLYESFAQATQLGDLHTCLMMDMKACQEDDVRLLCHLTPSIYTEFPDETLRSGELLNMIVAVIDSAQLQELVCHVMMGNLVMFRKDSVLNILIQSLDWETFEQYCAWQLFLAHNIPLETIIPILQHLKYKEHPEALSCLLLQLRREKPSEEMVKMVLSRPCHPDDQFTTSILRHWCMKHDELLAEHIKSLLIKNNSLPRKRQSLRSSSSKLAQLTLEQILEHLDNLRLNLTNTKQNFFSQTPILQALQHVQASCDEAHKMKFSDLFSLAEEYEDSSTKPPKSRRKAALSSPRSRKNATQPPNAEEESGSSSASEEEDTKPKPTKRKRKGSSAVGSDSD
UniProt Q6IEG0: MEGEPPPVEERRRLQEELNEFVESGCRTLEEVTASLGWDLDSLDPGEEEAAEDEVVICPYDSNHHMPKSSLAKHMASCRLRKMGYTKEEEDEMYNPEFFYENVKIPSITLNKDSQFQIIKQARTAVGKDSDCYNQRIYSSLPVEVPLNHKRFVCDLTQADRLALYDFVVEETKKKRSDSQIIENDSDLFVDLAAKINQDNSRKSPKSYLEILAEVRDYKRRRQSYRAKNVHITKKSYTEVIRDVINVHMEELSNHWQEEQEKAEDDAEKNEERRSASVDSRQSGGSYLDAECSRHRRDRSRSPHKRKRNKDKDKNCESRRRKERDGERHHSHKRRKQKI
UniProt Q9NZJ6: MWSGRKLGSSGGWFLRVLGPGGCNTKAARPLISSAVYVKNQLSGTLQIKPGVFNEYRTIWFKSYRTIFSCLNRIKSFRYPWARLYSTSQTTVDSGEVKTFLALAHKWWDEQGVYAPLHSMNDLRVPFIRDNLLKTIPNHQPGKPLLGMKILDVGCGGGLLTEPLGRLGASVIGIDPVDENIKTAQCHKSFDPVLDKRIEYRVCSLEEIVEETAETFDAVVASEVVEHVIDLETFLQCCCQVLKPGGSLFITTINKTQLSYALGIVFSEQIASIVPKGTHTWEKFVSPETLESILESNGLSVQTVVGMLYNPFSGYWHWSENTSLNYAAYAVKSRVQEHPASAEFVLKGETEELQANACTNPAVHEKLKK
UniProt Q58WW2: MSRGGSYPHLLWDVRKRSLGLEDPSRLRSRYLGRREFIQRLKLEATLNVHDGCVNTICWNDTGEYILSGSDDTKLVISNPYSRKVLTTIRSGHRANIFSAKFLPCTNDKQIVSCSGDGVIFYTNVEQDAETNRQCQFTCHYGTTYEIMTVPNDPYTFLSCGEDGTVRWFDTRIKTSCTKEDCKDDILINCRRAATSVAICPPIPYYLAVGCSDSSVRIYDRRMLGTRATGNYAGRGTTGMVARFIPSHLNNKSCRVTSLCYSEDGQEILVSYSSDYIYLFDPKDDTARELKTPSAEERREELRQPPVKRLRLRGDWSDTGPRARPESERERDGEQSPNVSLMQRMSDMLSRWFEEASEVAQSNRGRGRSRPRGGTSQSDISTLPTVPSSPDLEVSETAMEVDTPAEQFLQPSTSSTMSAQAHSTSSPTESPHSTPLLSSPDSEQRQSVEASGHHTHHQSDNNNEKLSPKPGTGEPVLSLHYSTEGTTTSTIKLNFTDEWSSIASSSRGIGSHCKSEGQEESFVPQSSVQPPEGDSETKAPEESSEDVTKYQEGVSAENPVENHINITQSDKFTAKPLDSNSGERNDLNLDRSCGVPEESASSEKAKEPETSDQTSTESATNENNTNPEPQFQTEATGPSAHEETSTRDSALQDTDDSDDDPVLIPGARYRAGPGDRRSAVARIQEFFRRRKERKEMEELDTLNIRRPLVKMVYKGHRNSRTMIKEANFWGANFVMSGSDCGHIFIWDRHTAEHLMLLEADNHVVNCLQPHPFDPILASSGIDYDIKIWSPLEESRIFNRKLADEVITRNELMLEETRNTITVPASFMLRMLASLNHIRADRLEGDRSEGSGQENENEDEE
UniProt Q53HC5: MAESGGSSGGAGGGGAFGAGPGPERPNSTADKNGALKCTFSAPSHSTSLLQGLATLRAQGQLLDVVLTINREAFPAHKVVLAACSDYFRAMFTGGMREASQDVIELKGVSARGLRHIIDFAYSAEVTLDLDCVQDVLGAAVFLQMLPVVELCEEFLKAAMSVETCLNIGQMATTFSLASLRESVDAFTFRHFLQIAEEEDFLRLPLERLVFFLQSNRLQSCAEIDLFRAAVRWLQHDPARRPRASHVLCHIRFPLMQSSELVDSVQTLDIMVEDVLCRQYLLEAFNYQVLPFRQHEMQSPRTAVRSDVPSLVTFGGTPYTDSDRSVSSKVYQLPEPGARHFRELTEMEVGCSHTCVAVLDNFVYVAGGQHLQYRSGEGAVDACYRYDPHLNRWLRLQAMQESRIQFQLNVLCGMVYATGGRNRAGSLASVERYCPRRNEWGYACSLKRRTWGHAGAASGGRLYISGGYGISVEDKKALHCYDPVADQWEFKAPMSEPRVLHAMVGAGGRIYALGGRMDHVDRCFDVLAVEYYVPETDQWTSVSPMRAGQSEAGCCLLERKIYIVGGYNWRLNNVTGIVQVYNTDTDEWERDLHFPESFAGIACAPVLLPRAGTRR
UniProt Q6IE81, whole entry: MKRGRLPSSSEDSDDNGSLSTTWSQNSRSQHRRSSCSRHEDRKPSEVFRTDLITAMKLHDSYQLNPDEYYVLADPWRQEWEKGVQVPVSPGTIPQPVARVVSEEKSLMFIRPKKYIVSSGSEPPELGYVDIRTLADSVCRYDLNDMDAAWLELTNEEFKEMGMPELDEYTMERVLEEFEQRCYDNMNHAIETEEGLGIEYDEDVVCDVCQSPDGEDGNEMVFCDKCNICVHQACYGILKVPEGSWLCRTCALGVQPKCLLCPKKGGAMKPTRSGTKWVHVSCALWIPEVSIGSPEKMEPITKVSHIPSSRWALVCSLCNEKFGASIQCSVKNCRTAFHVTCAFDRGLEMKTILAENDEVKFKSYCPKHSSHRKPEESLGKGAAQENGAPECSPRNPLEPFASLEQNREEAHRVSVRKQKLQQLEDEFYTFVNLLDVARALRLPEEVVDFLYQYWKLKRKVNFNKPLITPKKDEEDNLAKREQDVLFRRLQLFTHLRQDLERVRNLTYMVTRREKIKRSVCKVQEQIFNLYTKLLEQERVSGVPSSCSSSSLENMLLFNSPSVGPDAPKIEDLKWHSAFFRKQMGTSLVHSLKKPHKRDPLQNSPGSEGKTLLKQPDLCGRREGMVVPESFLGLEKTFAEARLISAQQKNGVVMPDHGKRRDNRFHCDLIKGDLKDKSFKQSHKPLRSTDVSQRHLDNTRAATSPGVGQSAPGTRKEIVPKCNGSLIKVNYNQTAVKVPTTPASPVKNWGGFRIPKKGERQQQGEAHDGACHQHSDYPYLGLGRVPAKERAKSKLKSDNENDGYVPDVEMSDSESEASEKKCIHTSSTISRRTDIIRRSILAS

Compound: Nc1ncnc2c1ncn2[C@@H]1O[C@H](COP(=O)(O)OP(=O)(O)OP(=O)(O)O)[C@@H](O)[C@H]1O [adenosine triphosphate]
Experiment: NP40-soluble protein abundance relative to vehicle (solubility fold change) (ratio); higher = more soluble protein in presence of ATP
In short: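 Crude Jurkat lysate, prepared by Dounce homogenisation, was exposed to eight concentrations from 0.1 to 10 mM for 10 min at room temperature and then 3 min at 37 °C. Solubilisation used 0.8% NP40 with benzonase for 60 min at 4 °C, followed by ultracentrifugation and TMT labelling of the supernatant for LC-MS/MS. After vsn normalisation of intensities, each value is the fold change against the detergent-processed vehicle within each replicate, across three independent experiments.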

## UniProt Q5TKA1 and related entries
concentration: 0.1mM
  NP40-soluble protein abundance: 1.02 ± 0.036
concentration: 0.5mM
  NP40-soluble protein abundance: 1.02 ± 0.033

## LMBRD2 (UniProt Q68DH5)
concentration: 0.1mM
  NP40-soluble protein abundance: 1.02 ± 0.098
concentration: 0.5mM
  NP40-soluble protein abundance: 1.05 ± 0.064

## RIF1 (UniProt Q5UIP0)
concentration: 0.1mM
  NP40-soluble protein abundance: 0.991 ± 0.024
concentration: 0.5mM
  NP40-soluble protein abundance: 1.05 ± 0.048

## UniProt Q5F1R6 and related entries
concentration: 0.1mM
  NP40-soluble protein abundance: 1.02 ± 0.055
concentration: 0.5mM
  NP40-soluble protein abundance: 1.01 ± 0.033

## FAM160B1 (UniProt Q5W0V3)
concentration: 0.1mM
  NP40-soluble protein abundance: 1.03 ± 0.011
concentration: 0.5mM
  NP40-soluble protein abundance: 1.04 ± 0.049

## GKAP1 (UniProt Q5VSY0)
concentration: 0.1mM
  NP40-soluble protein abundance: 1.03 ± 0.038
concentration: 0.5mM
  NP40-soluble protein abundance: 1.08 ± 0.13

## UniProt Q53EL6 and related entries
concentration: 0.1mM
  NP40-soluble protein abundance: 0.974 ± 0.061
concentration: 0.5mM
  NP40-soluble protein abundance: 1.23 ± 0.11

## CEP350 (UniProt Q5VT06)
concentration: 0.1mM
  NP40-soluble protein abundance: 1.01 ± 0.058
concentration: 0.5mM
  NP40-soluble protein abundance: 0.968 ± 0.12

## UniProt Q5MIZ7-2|Q5MIZ7-3
concentration: 0.1mM
  NP40-soluble protein abundance: 1.01 ± 0.011
concentration: 0.5mM
  NP40-soluble protein abundance: 1.02 ± 0.065

## UniProt Q5VWN6
concentration: 0.1mM
  NP40-soluble protein abundance: 1.17 ± 0.12
concentration: 0.5mM
  NP40-soluble protein abundance: 1.15 ± 0.11

## UniProt Q68E01-2|Q68E01
concentration: 0.1mM
  NP40-soluble protein abundance: 1.1 ± 0.16
concentration: 0.5mM
  NP40-soluble protein abundance: 1.04 ± 0.1

## UniProt Q4KMQ2 and related entries
concentration: 0.1mM
  NP40-soluble protein abundance: 0.9927 ± 0.0041
concentration: 0.5mM
  NP40-soluble protein abundance: 0.981 ± 0.037

## DDX59 (UniProt Q5T1V6)
concentration: 0.1mM
  NP40-soluble protein abundance: 1.02 ± 0.07
concentration: 0.5mM
  NP40-soluble protein abundance: 1.03 ± 0.046

## TWF2 (UniProt Q6IBS0)
concentration: 0.1mM
  NP40-soluble protein abundance: 1.02 ± 0.086
concentration: 0.5mM
  NP40-soluble protein abundance: 1.05 ± 0.053

## CDCA8 (UniProt Q53HL2)
concentration: 0.1mM
  NP40-soluble protein abundance: 1.01 ± 0.13
concentration: 0.5mM
  NP40-soluble protein abundance: 0.899 ± 0.17

## UniProt Q5U5Q3 and related entries
concentration: 0.1mM
  NP40-soluble protein abundance: 0.86 ± 0.086
concentration: 0.5mM
  NP40-soluble protein abundance: 0.972 ± 0.044

## OGFOD2 (UniProt Q6N063)
concentration: 0.1mM
  NP40-soluble protein abundance: 1.06 ± 0.11
concentration: 0.5mM
  NP40-soluble protein abundance: 1.02 ± 0.15

## UniProt Q6ICG6 and related entries
concentration: 0.1mM
  NP40-soluble protein abundance: 1.03 ± 0.07
concentration: 0.5mM
  NP40-soluble protein abundance: 1.12 ± 0.054

## SNRNP48 (UniProt Q6IEG0)
concentration: 0.1mM
  NP40-soluble protein abundance: 0.946 ± 0.16
concentration: 0.5mM
  NP40-soluble protein abundance: 1.2 ± 0.1

## Q5T063 and related entries (UniProt Q9NZJ6)
concentration: 0.1mM
  NP40-soluble protein abundance: 0.966 ± 0.012
concentration: 0.5mM
  NP40-soluble protein abundance: 1.08 ± 0.074

## TOR2A (UniProt Q5JU69)
concentration: 0.1mM
  NP40-soluble protein abundance: 1.06 ± 0.029
concentration: 0.5mM
  NP40-soluble protein abundance: 0.95 ± 0.078

## UniProt Q5JS37 and related entries
concentration: 0.1mM
  NP40-soluble protein abundance: 1.01 ± 0.031
concentration: 0.5mM
  NP40-soluble protein abundance: 1.02 ± 0.032

## COQ5 (UniProt Q5HYK3)
concentration: 0.1mM
  NP40-soluble protein abundance: 0.999 ± 0.099
concentration: 0.5mM
  NP40-soluble protein abundance: 0.973 ± 0.021

## UniProt Q5VTB9 and related entries
concentration: 0.1mM
  NP40-soluble protein abundance: 0.958 ± 0.021
concentration: 0.5mM
  NP40-soluble protein abundance: 0.9555 ± 0.002

## ANKRD16 (UniProt Q6P6B7)
concentration: 0.1mM
  NP40-soluble protein abundance: 0.938 ± 0.1
concentration: 0.5mM
  NP40-soluble protein abundance: 0.96 ± 0.11

## Q5STZ8 and related entries (UniProt Q8NE71)
concentration: 0.1mM
  NP40-soluble protein abundance: 1.04 ± 0.062
concentration: 0.5mM
  NP40-soluble protein abundance: 1.04 ± 0.034

## PPP2R2D (UniProt Q66LE6)
concentration: 0.1mM
  NP40-soluble protein abundance: 1.08 ± 0.091
concentration: 0.5mM
  NP40-soluble protein abundance: 1.11 ± 0.063

## UniProt Q6GMV3
concentration: 0.1mM
  NP40-soluble protein abundance: 0.933 ± 0.11
concentration: 0.5mM
  NP40-soluble protein abundance: 0.873 ± 0.15

## UniProt Q5JSH3 and related entries
concentration: 0.1mM
  NP40-soluble protein abundance: 0.99 ± 0.02
concentration: 0.5mM
  NP40-soluble protein abundance: 0.987 ± 0.022

## Q5TBP9 and related entries (UniProt Q9BX40)
concentration: 0.1mM
  NP40-soluble protein abundance: 0.974 ± 0.028
concentration: 0.5mM
  NP40-soluble protein abundance: 1.06 ± 0.04

## UniProt Q5JSZ5
concentration: 0.1mM
  NP40-soluble protein abundance: 0.99 ± 0.09
concentration: 0.5mM
  NP40-soluble protein abundance: 0.999 ± 0.065

## PHLDB3 (UniProt Q6NSJ2)
concentration: 0.1mM
  NP40-soluble protein abundance: 1.01 ± 0.11
concentration: 0.5mM
  NP40-soluble protein abundance: 0.994 ± 0.095

## UniProt Q6P4R8 and related entries
concentration: 0.1mM
  NP40-soluble protein abundance: 0.98 ± 0.086
concentration: 0.5mM
  NP40-soluble protein abundance: 1.04 ± 0.084

## UniProt Q58WW2 and related entries
concentration: 0.1mM
  NP40-soluble protein abundance: 1.03 ± 0.069
concentration: 0.5mM
  NP40-soluble protein abundance: 1.024 ± 0.0094

## Q5T5C7 (UniProt P49591)
concentration: 0.1mM
  NP40-soluble protein abundance: 1.03 ± 0.077
concentration: 0.5mM
  NP40-soluble protein abundance: 0.997 ± 0.1

## PMF1 (UniProt Q6P1K2)
concentration: 0.1mM
  NP40-soluble protein abundance: 0.996 ± 0.042
concentration: 0.5mM
  NP40-soluble protein abundance: 0.948 ± 0.05

## LYRM7 (UniProt Q5U5X0)
concentration: 0.1mM
  NP40-soluble protein abundance: 0.92 ± 0.18
concentration: 0.5mM
  NP40-soluble protein abundance: 0.852 ± 0.22

## UniProt Q53GT1 and related entries
concentration: 0.1mM
  NP40-soluble protein abundance: 0.977 ± 0.063
concentration: 0.5mM
  NP40-soluble protein abundance: 1.01 ± 0.046

## UniProt Q6N043 and related entries
concentration: 0.1mM
  NP40-soluble protein abundance: 1.06 ± 0.054
concentration: 0.5mM
  NP40-soluble protein abundance: 1.06 ± 0.05

## DNAL1 (UniProt Q4LDG9)
concentration: 0.1mM
  NP40-soluble protein abundance: 0.961 ± 0.1
concentration: 0.5mM
  NP40-soluble protein abundance: 0.831 ± 0.18

## UniProt Q5T0D9 and related entries
concentration: 0.1mM
  NP40-soluble protein abundance: 1.09 ± 0.15
concentration: 0.5mM
  NP40-soluble protein abundance: 1.01 ± 0.16

## AARS2 (UniProt Q5JTZ9)
concentration: 0.1mM
  NP40-soluble protein abundance: 1.05 ± 0.06
concentration: 0.5mM
  NP40-soluble protein abundance: 1.06 ± 0.036

## HSD17B12 (UniProt Q53GQ0)
concentration: 0.1mM
  NP40-soluble protein abundance: 0.996 ± 0.037
concentration: 0.5mM
  NP40-soluble protein abundance: 1 ± 0.024

## ZCCHC8 (UniProt Q6NZY4)
concentration: 0.1mM
  NP40-soluble protein abundance: 0.989 ± 0.067
concentration: 0.5mM
  NP40-soluble protein abundance: 0.967 ± 0.066

## UniProt Q6F5E8 and related entries
concentration: 0.1mM
  NP40-soluble protein abundance: 0.993 ± 0.04
concentration: 0.5mM
  NP40-soluble protein abundance: 1.01 ± 0.048

## MRPL54 (UniProt Q6P161)
concentration: 0.1mM
  NP40-soluble protein abundance: 0.983 ± 0.049
concentration: 0.5mM
  NP40-soluble protein abundance: 0.998 ± 0.039

## UniProt Q5JTH9 and related entries
concentration: 0.1mM
  NP40-soluble protein abundance: 0.988 ± 0.029
concentration: 0.5mM
  NP40-soluble protein abundance: 1.03 ± 0.074

## KLHL26 (UniProt Q53HC5)
concentration: 0.1mM
  NP40-soluble protein abundance: 1.08 ± 0.098
concentration: 0.5mM
  NP40-soluble protein abundance: 1.15 ± 0.1

## UniProt Q5FWF5
concentration: 0.1mM
  NP40-soluble protein abundance: 1.11 ± 0.11
concentration: 0.5mM
  NP40-soluble protein abundance: 1.13 ± 0.022

## UniProt Q6PCB7 and related entries
concentration: 0.1mM
  NP40-soluble protein abundance: 1.06 ± 0.059
concentration: 0.5mM
  NP40-soluble protein abundance: 1.05 ± 0.13

## TMEM41B (UniProt Q5BJD5)
concentration: 0.1mM
  NP40-soluble protein abundance: 1.02 ± 0.087
concentration: 0.5mM
  NP40-soluble protein abundance: 0.985 ± 0.013

## UniProt Q4VC05 and related entries
concentration: 0.1mM
  NP40-soluble protein abundance: 0.81 ± 0.044
concentration: 0.5mM
  NP40-soluble protein abundance: 0.872 ± 0.17

## WDR73 (UniProt Q6P4I2)
concentration: 0.1mM
  NP40-soluble protein abundance: 1.09 ± 0.094
concentration: 0.5mM
  NP40-soluble protein abundance: 1.05 ± 0.1

## TAF3 (UniProt Q5VWG9)
concentration: 0.1mM
  NP40-soluble protein abundance: 0.988 ± 0.075
concentration: 0.5mM
  NP40-soluble protein abundance: 1.05 ± 0.092

## UniProt Q6IE81 and related entries
concentration: 0.1mM
  NP40-soluble protein abundance: 1.12 ± 0.26
concentration: 0.5mM
  NP40-soluble protein abundance: 1.11 ± 0.087

## UniProt Q6NTF9 and related entries
concentration: 0.1mM
  NP40-soluble protein abundance: 0.939 ± 0.047
concentration: 0.5mM
  NP40-soluble protein abundance: 0.919 ± 0.058

## UniProt Q69YN4 and related entries
concentration: 0.1mM
  NP40-soluble protein abundance: 1.02 ± 0.044
concentration: 0.5mM
  NP40-soluble protein abundance: 1.06 ± 0.056

## CROCC (UniProt Q5TZA2)
concentration: 0.1mM
  NP40-soluble protein abundance: 0.974 ± 0.073
concentration: 0.5mM
  NP40-soluble protein abundance: 0.941 ± 0.051
